PubChem BioAssay AID1259405, NCATS | 2018

Assay: 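Knock-downs that lift recombinant protein yield in hamster ovary cells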 (primary screen)
System: Chinese hamster CHO-K1 ovary cells with stable secreted eGFP expression
Reagents: single siRNA against mouse genes, 0.8 pmol siRNA per well (2 µl of 400 nM stock)
Duration: 3 days
Detection: 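Per-well intracellular GFP measured by laser scanning cytometry, plus viability from ATP luminescence, each relative to plate median of non-targeting control wells, in %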
Scale: GFP, % of control: higher = more GFP per well, higher productivity; viability (ATP), % of control: higher = more viable cells (more ATP)
Call rule: 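a knock-down is called active if GFP reaches 120% or more of non-targeting control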
In all, the deposit lists about 50,000 reagents; shown is a random part of them. Over the whole deposit, about 4,000 (8%) are marked active. 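Mouse siRNA library applied to hamster cells; one well for each siRNA.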 Unmarked entries are inactive. The numbers tell different reagents against one gene apart.

Kif21a (GeneID 16564) #1 | GFP, % of control: 72.4; viability (ATP), % of control: 87.9
Kif21a (GeneID 16564) #2 | GFP, % of control: 52.5; viability (ATP), % of control: 55
Ftl1 (GeneID 14325) #1 | GFP, % of control: 73.9; viability (ATP), % of control: 78.4
Ftl1 (GeneID 14325) #2 | GFP, % of control: 58.7; viability (ATP), % of control: 36.9
Ftl1 (GeneID 14325) #3 | GFP, % of control: 174 (active); viability (ATP), % of control: 29.9
Efemp1 (GeneID 216616) #1 | GFP, % of control: 65.1; viability (ATP), % of control: 66
Efemp1 (GeneID 216616) #2 | GFP, % of control: 101; viability (ATP), % of control: 121
Efemp1 (GeneID 216616) #3 | GFP, % of control: 113; viability (ATP), % of control: 64.4
Asb16 (GeneID 217217) #1 | GFP, % of control: 86.7; viability (ATP), % of control: 65.4
Asb16 (GeneID 217217) #2 | GFP, % of control: 99.1; viability (ATP), % of control: 101
Asb16 (GeneID 217217) #3 | GFP, % of control: 324 (active); viability (ATP), % of control: 130
Vmn2r1 (GeneID 56544) #1 | GFP, % of control: 70.8; viability (ATP), % of control: 67.7
Vmn2r1 (GeneID 56544) #2 | GFP, % of control: 60.3; viability (ATP), % of control: 54.6
Vmn2r1 (GeneID 56544) #3 | GFP, % of control: 67.8; viability (ATP), % of control: 73.9
Coq3 (GeneID 230027) #1 | GFP, % of control: 106; viability (ATP), % of control: 81.8
Coq3 (GeneID 230027) #2 | GFP, % of control: 85.4; viability (ATP), % of control: 114
Coq3 (GeneID 230027) #3 | GFP, % of control: 115; viability (ATP), % of control: 92.5
Ppme1 (GeneID 72590) #1 | GFP, % of control: 105; viability (ATP), % of control: 81.4
Ppme1 (GeneID 72590) #2 | GFP, % of control: 117; viability (ATP), % of control: 100
Ppme1 (GeneID 72590) #3 | GFP, % of control: 79; viability (ATP), % of control: 78.8
Clcn5 (GeneID 12728) #1 | GFP, % of control: 89.3; viability (ATP), % of control: 85
Clcn5 (GeneID 12728) #2 | GFP, % of control: 88.6; viability (ATP), % of control: 91.6
Clcn5 (GeneID 12728) #3 | GFP, % of control: 58; viability (ATP), % of control: 77

Entries above marked active, once more:
Ftl1 (GeneID 14325) #3 | GFP, % of control: 174 (active); viability (ATP), % of control: 29.9
Asb16 (GeneID 217217) #3 | GFP, % of control: 324 (active); viability (ATP), % of control: 130

The list goes on.
Unc80 (GeneID 329178) #1 | GFP, % of control: 33.3; viability (ATP), % of control: 50.9
Unc80 (GeneID 329178) #2 | GFP, % of control: 49; viability (ATP), % of control: 81.8
Unc80 (GeneID 329178) #3 | GFP, % of control: 102; viability (ATP), % of control: 101
Iyd (GeneID 70337) #1 | GFP, % of control: 89; viability (ATP), % of control: 44.8
Iyd (GeneID 70337) #2 | GFP, % of control: 93.9; viability (ATP), % of control: 44.9
Iyd (GeneID 70337) #3 | GFP, % of control: 90.9; viability (ATP), % of control: 94.3
Gpr83 (GeneID 14608) #1 | GFP, % of control: 68.5; viability (ATP), % of control: 76.4
Gpr83 (GeneID 14608) #2 | GFP, % of control: 65.2; viability (ATP), % of control: 73.5
Gpr83 (GeneID 14608) #3 | GFP, % of control: 77.8; viability (ATP), % of control: 79.8
Tcea2 (GeneID 21400) #1 | GFP, % of control: 46; viability (ATP), % of control: 48.4
Tcea2 (GeneID 21400) #2 | GFP, % of control: 104; viability (ATP), % of control: 72
Tcea2 (GeneID 21400) #3 | GFP, % of control: 74.1; viability (ATP), % of control: 75.2
Taf13 (GeneID 99730) #1 | GFP, % of control: 83.2; viability (ATP), % of control: 61.9
Taf13 (GeneID 99730) #2 | GFP, % of control: 98.7; viability (ATP), % of control: 82.9
Taf13 (GeneID 99730) #3 | GFP, % of control: 83.1; viability (ATP), % of control: 78.2
Acadvl (GeneID 11370) #1 | GFP, % of control: 76.8; viability (ATP), % of control: 66.5
Acadvl (GeneID 11370) #2 | GFP, % of control: 61.8; viability (ATP), % of control: 55.4
Acadvl (GeneID 11370) #3 | GFP, % of control: 71.4; viability (ATP), % of control: 79.8
